# Results: PubChem BioAssay AID652054 (National Center for Advancing Translational Sciences (NCATS), 2013)
# Protein sequences, listed by entry. Tags and fused reporters are not part of them.
# UniProt P35462, whole entry, looked up: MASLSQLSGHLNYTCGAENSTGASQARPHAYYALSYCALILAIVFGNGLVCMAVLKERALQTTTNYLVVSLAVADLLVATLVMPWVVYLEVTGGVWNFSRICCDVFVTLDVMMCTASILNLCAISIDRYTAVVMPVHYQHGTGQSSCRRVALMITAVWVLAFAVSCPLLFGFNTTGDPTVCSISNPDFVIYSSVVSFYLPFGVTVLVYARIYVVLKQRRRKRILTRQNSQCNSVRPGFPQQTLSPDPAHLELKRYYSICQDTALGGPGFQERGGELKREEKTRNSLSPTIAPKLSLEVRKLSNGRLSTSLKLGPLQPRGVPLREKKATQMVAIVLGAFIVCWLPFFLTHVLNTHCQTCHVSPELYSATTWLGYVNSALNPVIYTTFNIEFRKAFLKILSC
# The whole screen tested about 360,000 compounds, of which about 9,100 (2.5%) were called active. Inconclusive means that the source gave no clear call. Such entries were picked first, then a sample of the others. Rule as the data show it: active = max response below about -50%; inconclusive = no clear call, values can overlap the other calls; inactive = above that.
# Molecular target: D(3) dopamine receptor (Homo sapiens) (UniProt P35462)
# Experiment: qHTS of D3 Dopamine Receptor Antagonist: qHTS
# Conditions: D3R cells, DiscoveRx beta-arrestin luminescence, antagonist mode; active compounds read low
# Method in brief: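 Cells plated overnight at 1500 cells/well, then exposed to library compounds with dopamine controls for 90 minutes at 37 degrees C. DiscoveRx reagent added for 30–60 minutes at room temperature; luminescence read, quantitative HTS format.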
# % is scaled to controls: 0 for no effect and ±100 for the full control effect.
row,Compound,"max response, negative = inhibition"
1,CCOC(=O)N1CCN(C(=O)Nc2ccc3nc(C)c(C)nc3c2)CC1,inactive: 2.3%
2,COc1ccc(CCC(C)NCc2ccc(C(F)(F)F)cc2)cc1 (stereo unspecified),inconclusive: -34.7%
3,O=S(=O)(c1ccccc1)N1CCN(c2ncnc3scc(-c4ccccc4)c23)CC1,inactive: 15.6%
4,O=C1CC(/C=C/c2ccc(Cl)cc2)=Nc2ccccc2N1,inconclusive: -43.9%
5,COc1ccc(N2C(=O)CC(Sc3nnc(-c4ccccc4F)n3C)C2=O)cc1 (stereo unspecified),inconclusive: -47.8%
6,COc1ccc(CNS(=O)(=O)c2ccc(C3CNC(=O)C3)cc2)cc1 (stereo unspecified),active: -142%
7,CCOc1cc(N2CCOCC2)c(OCC)cc1NCC(=O)N1CCN(Cc2ccccc2)CC1,inactive: -1.53%
8,O=C(c1ccc(Br)s1)N1CCN(C/C=C/c2ccccc2)CC1,active: -74.8%
9,O=C(NCc1ccc(F)cc1)C1CCCN(c2nc3ccsc3c(=O)s2)C1 (stereo unspecified),inconclusive: -36.6%
10,Cc1ccc(C2CC(=O)C=C(NCc3ccccc3)C2)cc1 (stereo unspecified),inactive: -24.1%
11,O=C(CC1(O)C(=O)Nc2ccccc21)c1ccc2c(c1)OCO2 (stereo unspecified),inactive: -3.75%
12,CCOC(=O)C1=C(C)c2ccccc2N(S(=O)(=O)C(F)(F)F)C1C(=O)OCC (stereo unspecified),inactive: 16%
13,CC(C)COP(=O)(c1ccc(N(C)C)cc1)C(Nc1ccccc1)c1ccccc1 (stereo unspecified),inactive: -13.5%
14,COc1ccc(NC(=O)C(c2ccc(C(F)(F)F)cc2)n2c(=O)c(-c3cc4ccccc4[nH]3)nc3ccccc32)cc1 (stereo unspecified),inactive: 22%
15,Cc1ccc(NC(=O)COC(=O)[C@@H]2CCCN2C(=O)c2cccs2)cc1S(=O)(=O)N(C)C,inconclusive: -37.4%
16,CSc1ccc(/C=N/n2c(COc3ccccc3)n[nH]c2=S)cc1,inconclusive: -30.8%
17,FC(F)(F)c1cccc(CN2CCCCCC2)c1,inconclusive: -49.9%
18,Oc1ccc(N=Nc2nc(-c3ccccc3)c(-c3ccccc3)[nH]2)cc1,active: -53%
19,COc1ccc(NC(=O)c2c(C)nn(Cc3ccccc3)c2Cl)cc1S(=O)(=O)N1CCOCC1,inactive: -1.78%

row,Compound,"max response, negative = inhibition"
1,O=C(Nc1ccccc1F)c1ccncc1,inconclusive: -34.6%
2,OC(c1ccc(F)cc1)c1nc(-c2ccc(Cl)cc2)cs1 (stereo unspecified),inactive: -29.6%
3,CCN(CC)S(=O)(=O)c1ccc(O)c(C(=O)OCC(=O)NC23CC4CC(CC(C4)C2)C3)c1,inconclusive: -30.4%
4,CC(=O)Nc1ccc(C=NN=C2c3ccccc3-c3ccccc32)cc1,inactive: 6.62%
5,O=C(NCCCN1CCN(CCCNC(=O)c2ccccc2F)CC1)c1ccccc1F,active: -51.3%
6,COc1ccc(/C=C/CN2CCCC(C(=O)c3ccc(OC)c(F)c3)C2)cc1 (stereo unspecified),inconclusive: -47.6%
7,CCOc1ccc(C(C)(O)CN2CCOCC2)cc1 (stereo unspecified),inconclusive: -33.9%
8,O=C(Nc1cc2c3c(c1)C1CCCC1CN3CC1CCCC21)c1ccccc1 (stereo unspecified),inconclusive: -49.8%
9,COc1ccc(C2c3[nH]c4ccccc4c3C[C@H]3C(=O)N(C4CCN(Cc5ccccc5)CC4)CC(=O)N23)c(OC)c1 (stereo partly specified),inactive: -29.7%
10,O=C(c1cccs1)N1CCN(Cc2cccnc2)CC1,inconclusive: -35.7%
11,COCCn1c(=S)[nH]c2cc(C(=O)N3CCN(C4CCCCC4)CC3)ccc2c1=O,inconclusive: -42%
12,COC(=O)[C@@]12C[C@@H](CC(=O)NCc3ccc(OC)c(OC)c3)C(=O)N(CCc3ccc(OC)c(OC)c3)C1=CCC(C)(C)C2,inactive: 19.6%
13,Cc1ccc(OCC(=O)Nc2ccc3c(c2)nc(CCN2CCN(C)CC2)n3C)cc1,inconclusive: -34.2%
14,O=C1O/C(=C/c2ccccc2)N=C1c1ccccc1,inconclusive: -32.4%
15,COc1cc(CN2CCC(C(=O)NC(c3ccc(F)cc3)c3ccc4ccccc4n3)CC2)cc(OC)c1 (stereo unspecified),active: -67.7%
16,CN(Cc1ccccc1)C(=O)c1ccc(NC(=O)Cc2ccc([N+](=O)[O-])cc2)cc1,inconclusive: -31.1%
17,O=C(COC(=O)CCc1c[nH]c2ccccc12)Nc1cccc(Cl)c1,inactive: -6.82%
18,COc1ccc(-c2csc3nc(C)nc(N4CCCCC4)c23)cc1OC,inactive: 10.4%
19,OC(CNCC(c1ccco1)N1CCCCC1)c1ccccc1 (stereo unspecified),inconclusive: -31%

# 5 successive entries already listed, quoted:
row,Compound,"max response, negative = inhibition"
2,OC(c1ccc(F)cc1)c1nc(-c2ccc(Cl)cc2)cs1 (stereo unspecified),inactive: -29.6%
3,CCN(CC)S(=O)(=O)c1ccc(O)c(C(=O)OCC(=O)NC23CC4CC(CC(C4)C2)C3)c1,inconclusive: -30.4%
4,CC(=O)Nc1ccc(C=NN=C2c3ccccc3-c3ccccc32)cc1,inactive: 6.62%
5,O=C(NCCCN1CCN(CCCNC(=O)c2ccccc2F)CC1)c1ccccc1F,active: -51.3%
6,COc1ccc(/C=C/CN2CCCC(C(=O)c3ccc(OC)c(F)c3)C2)cc1 (stereo unspecified),inconclusive: -47.6%

# Further records follow:

row,Compound,"max response, negative = inhibition"
1,Cc1occc1-c1nnc(SCC(=O)c2ccc(Cl)cc2)n1CC1CCCO1 (stereo unspecified),inconclusive: -33%
2,COc1ccc(C(=O)n2nc(C)cc2C)cc1Br,inconclusive: -36.7%
3,O=C(O)CCC(=O)Nc1ccc(-c2csc(Nc3cccc4ccccc34)n2)cc1,inactive: -1.13%
4,CC(C)c1ccc(CNCCCSc2ncccn2)cc1,inactive: 112%
5,CN1CCc2c(sc(/N=C/c3cc(C(C)(C)C)ccc3O)c2C#N)C1,active: -54.1%
6,Cc1cnc(CN(C)C(=O)c2cc(COc3c(F)cccc3F)on2)[nH]1,inconclusive: -40.6%
7,COc1ccc(S(=O)(=O)N2CCCCCC2)cc1NC(=O)CN(C)Cc1ccc2c(c1)OCO2,active: -68.1%
8,COc1ccccc1/C=C/CN1CCC(n2nccc2NC(=O)CCc2ccccc2)CC1,inconclusive: -31.6%
9,CCCC[n+]1c(C)sc2ccc(C)cc21,inconclusive: -39%
10,COc1ccc(C2(O)CCN(Cc3nnnn3Cc3ccc(F)cc3)CC2)cc1,inconclusive: -35%
11,Cc1nnc(NC(=O)Oc2ccccc2)s1,inactive: -16.1%
12,CCCCOc1ccc(S(=O)(=O)Nc2cc(OC)ccc2OC)cc1,inconclusive: -44.1%
13,COc1ccc(NS(=O)(=O)c2cccc(C(=O)NC3CCC(O)CC3)c2)cc1 (stereo unspecified),inactive: 11.4%
14,O=S(=O)(c1cccs1)N1CCN(c2cccc(Cl)c2)CC1,inactive: 12.8%
15,CCC1(C)Cc2ccccc2-c2nc[nH]c(=O)c21 (stereo unspecified),inconclusive: -30.1%
16,CC(=O)c1sc(NC(=O)c2cccc3ccccc23)nc1C,inconclusive: -30.3%
17,O=C(CSc1n[nH]c(=O)n1-c1cccnc1)Nc1ccccc1,inactive: 3.68%
18,c1cc2c(cc1CN1CCN(C3CCCCCC3)CC1)OCO2,active: -51.3%
